Experimental data reported in article PMC10231130.
These are yes or no findings as the source states them, for the method shown. For some assays here: In cells and extracts the contact can be indirect. Some results given as binding are weak or reduced against the parent protein; the word gives no strength.

Protein sequences, listed by entry. Tags and fused reporters are not part of them.
UniProt Q99816: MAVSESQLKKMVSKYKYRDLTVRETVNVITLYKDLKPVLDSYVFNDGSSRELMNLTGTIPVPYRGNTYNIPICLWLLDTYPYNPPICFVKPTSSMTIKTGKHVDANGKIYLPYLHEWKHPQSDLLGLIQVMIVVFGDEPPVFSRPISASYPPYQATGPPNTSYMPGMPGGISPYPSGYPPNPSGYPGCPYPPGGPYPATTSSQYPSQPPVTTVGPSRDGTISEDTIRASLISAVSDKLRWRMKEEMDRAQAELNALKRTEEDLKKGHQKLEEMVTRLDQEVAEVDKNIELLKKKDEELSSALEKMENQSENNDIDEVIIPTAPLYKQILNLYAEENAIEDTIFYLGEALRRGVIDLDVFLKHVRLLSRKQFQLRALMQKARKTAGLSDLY
UniProt P25223: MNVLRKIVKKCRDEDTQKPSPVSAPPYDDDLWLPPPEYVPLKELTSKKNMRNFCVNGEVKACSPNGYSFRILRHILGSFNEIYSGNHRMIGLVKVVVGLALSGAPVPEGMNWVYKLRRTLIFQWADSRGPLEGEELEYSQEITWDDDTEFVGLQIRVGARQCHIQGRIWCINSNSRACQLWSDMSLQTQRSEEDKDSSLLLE
UniProt Q8WUM4: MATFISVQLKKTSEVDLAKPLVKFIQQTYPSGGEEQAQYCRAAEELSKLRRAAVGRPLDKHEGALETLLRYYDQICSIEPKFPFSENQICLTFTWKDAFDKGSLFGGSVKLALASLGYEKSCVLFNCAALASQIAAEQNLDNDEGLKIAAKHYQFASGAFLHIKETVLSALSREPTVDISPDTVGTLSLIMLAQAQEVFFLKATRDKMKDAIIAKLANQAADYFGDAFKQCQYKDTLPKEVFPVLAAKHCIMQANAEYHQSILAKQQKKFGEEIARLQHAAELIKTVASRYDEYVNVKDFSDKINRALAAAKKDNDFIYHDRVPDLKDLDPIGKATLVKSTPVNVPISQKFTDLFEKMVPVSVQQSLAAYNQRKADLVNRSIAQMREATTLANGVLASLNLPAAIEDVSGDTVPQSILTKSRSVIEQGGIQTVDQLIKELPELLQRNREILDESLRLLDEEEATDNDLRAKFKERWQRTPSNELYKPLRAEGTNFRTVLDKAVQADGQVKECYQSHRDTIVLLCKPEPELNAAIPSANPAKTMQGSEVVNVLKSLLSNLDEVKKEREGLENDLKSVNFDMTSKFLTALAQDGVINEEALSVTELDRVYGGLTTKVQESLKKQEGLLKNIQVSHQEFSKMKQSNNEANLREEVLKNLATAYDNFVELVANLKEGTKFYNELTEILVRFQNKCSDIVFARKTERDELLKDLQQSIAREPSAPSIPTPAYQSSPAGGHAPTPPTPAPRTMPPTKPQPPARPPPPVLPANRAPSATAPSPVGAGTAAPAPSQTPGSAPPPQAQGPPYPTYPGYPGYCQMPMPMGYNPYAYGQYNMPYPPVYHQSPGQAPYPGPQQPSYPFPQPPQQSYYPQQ

Assays:
[1] = molecular target: TSG101, HA- or FLAG-tagged, wild type (human) (UniProt Q99816); assay: co-IP
[2] = molecular target: recombinant RABV M, His-tagged (rabies virus (strain not stated for the construct)) (UniProt P25223); assay: ELISA; both purified

Substance	binding [1]	binding [2]
rabies virus (RABV) matrix protein (M), HA- or FLAG-tagged (from UniProt P25223 1-202)	binds	–
recombinant human Alix, His-tagged (from UniProt Q8WUM4 1-868)	–	binds
